Measured values: PubChem BioAssay AID504444 (National Center for Advancing Translational Sciences (NCATS), 2011)
Out of some 360,000 compounds screened, about 7,500 (2.1%) were called active. Inconclusive results, whose numbers are uncertain, are shown with a selection of clear calls. Calls come from the whole dose curve; as a rule, active = well fitted inhibition curve with a large enough effect; inconclusive = small, poorly fitted or top-dose-only effect, or effect the other way; inactive = flat fitted curve, though single readings scatter. Potencies beside an inconclusive call are fits to weak or partial responses and may not hold up.

test: Nrf2 qHTS screen for inhibitors; settings: A549 ARE-Fluc reporter, luciferase luminescence, 18-24 h; series mostly up to 46 µM; note: nearly all actives have a fitted effect of over 60% in size
Summary of the method: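 Nrf2 function is reported as luminescence of an ARE-controlled luciferase in A549 cells. Compounds were tested at several concentrations, and a CellTiter-Fluor read on the same wells flagged cytotoxicity.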
Potency is the fitted concentration of half-maximal effect.

SMILES	Potency
O=C(NC(=S)Nc1ccc(S(=O)(=O)Nc2nccs2)cc1)c1ccc(F)c(F)c1	inactive
Cc1occc1-c1nnc(SCC(=O)Nc2ccc(F)cc2)n1Cc1ccccc1	inconclusive: 16.4 µM [falling, partial curve]
Nc1nccc(-c2nn(-c3ccc(Cl)cc3)ccc2=O)n1	inconclusive: 5.8 µM [falling, full curve, poor fit]
O=C(Nc1cccc(S(=O)(=O)Nc2ccccc2F)c1)c1ccco1	inconclusive: 23.1 µM [falling, single point]
CC(=O)N1c2ccc(S(=O)(=O)N3CCC(C(=O)NCc4ccc(N(C)C)cc4)CC3)cc2CC1C (stereo not given)	inconclusive: 10.3 µM [falling, partial curve, poor fit]
Oc1c(Br)cc(Br)c2cccnc12	inconclusive: 29.1 µM [falling, single point]
O=C(CN1CCN(S(=O)(=O)c2ccccc2)CC1)Nc1ccccc1C(=O)c1ccccc1	inconclusive: 20.6 µM [falling, single point]
CCOC(=O)c1c(C)oc2ncnc(Nc3cc(Cl)ccc3OC)c12	inconclusive: 4.61 µM [activator, partial curve]
O=C(CCCN1C(=O)/C(=C\c2ccccc2)SC1=S)Nc1ccc(O)cc1	inconclusive: 29.1 µM [falling, single point]
CCn1c(=O)n(CC(=O)N(C)Cc2ccccc2)c(=O)c2ccccc21	inconclusive: 14.6 µM [activator, partial curve]
Cc1cc(C)n(-c2ccc(C(=O)Nc3cc(S(=O)(=O)N(C)C)ccc3Cl)cc2)n1	active: 18.4 µM
Cc1cccc(C(=O)Nc2ccc3ccccc3c2)c1	inconclusive: 8.2 µM [activator, partial curve]
O=C1CSC(=S)N1/N=C/c1c(F)cccc1F	inactive
COc1ccc(CNc2ncnc3ccc(-c4c(C)noc4C)cc23)cc1	inactive
COc1cccc(-c2noc(-c3ccoc3C)n2)c1	inconclusive: 5.17 µM [activator, partial curve]
CSc1ncc(C(=O)NCc2ccc(C)cc2)c(-c2ccccc2)n1	inconclusive: 4.61 µM [activator, full curve]
Cc1cc(-c2ccc(C(C)C)c(S(=O)(=O)N3CCC(C)CC3)c2)on1	inactive
COc1ccc(/C=N/NC(=S)NCCc2ccccc2)cc1	inactive
CCOc1ccc(C(=O)CC(C(=O)O)N2CCCCC2)cc1 (stereo not given)	inactive
CCCn1nc([N+](=O)[O-])c(C(C#N)c2nc3ccccc3s2)c(Cl)c1=O (stereo not given)	inconclusive: 20.6 µM [falling, partial curve, poor fit]
CC(C)C(=O)N1CCN(c2ccc(NC(=O)c3cccs3)cc2Cl)CC1	inactive
CC1(C)CC(=O)c2sc(NC(=O)CN3CCOCC3)nc2C1	inconclusive: 6.51 µM [activator, full curve]
Cc1c(C(=O)Nc2ccccc2)cnn1-c1ccccc1	inconclusive: 9.2 µM [activator, partial curve]

Filtered by structure, the compounds so far with an aryl thioether with sulfur outside any ring (two)
SMILES	Potency
Cc1occc1-c1nnc(SCC(=O)Nc2ccc(F)cc2)n1Cc1ccccc1	inconclusive: 16.4 µM [falling, partial curve]
CSc1ncc(C(=O)NCc2ccc(C)cc2)c(-c2ccccc2)n1	inconclusive: 4.61 µM [activator, full curve]

Following part

SMILES	Potency
COc1ccccc1C(=O)NC(=S)Nc1ccccc1N1CCCCC1	inconclusive: 23.1 µM [activator, partial curve]
Cc1ccc(-n2c(C)c(C)c3c(NCCCO)ncnc32)cc1	inconclusive: 5.17 µM [activator, partial curve, poor fit]
O=c1c(Cl)c(N2CCN(c3ccc(F)cc3)CC2)cnn1-c1nc2ccccc2s1	inconclusive: 0.92 µM [activator, full curve]
CCCc1cc(=O)oc2cc(OCC(=O)NCCc3c[nH]c4ccc(OC)cc34)ccc12	inconclusive: 18.4 µM [falling, partial curve]
Cc1ccc(N2C(=O)CSC23C(=O)N(CC(=O)NC2CCCCC2)c2ccccc23)cc1C (stereo not given)	inconclusive: 20.6 µM [activator, single point]
CCCOc1ccc(C2C(C(=O)c3ccc(C)o3)=C(O)C(=O)N2Cc2ccco2)cc1OCC (stereo not given)	inconclusive: 18.4 µM [falling, partial curve, poor fit]
CC(=O)Nc1ccc(-c2c(C)cc3oc(=O)cc(-c4ccccc4)c3c2C)cc1	inconclusive: 18.4 µM [falling, single point]
CCn1c(O)c(N=Nc2ccc3ccccc3n2)c2ccccc21	inconclusive: 29.1 µM [activator, single point]
Cc1cc(C)c2c(=O)[nH]c(SCC(=O)Nc3ccc(N(C)C)cc3)nc2n1	inconclusive: 29.1 µM [falling, single point]
Cc1ccccc1OCc1nc2ccccc2[nH]1	inconclusive: 10.3 µM [activator, partial curve]
O=[N+]([O-])c1ccc(S(=O)(=O)NCCN2CCOCC2)cc1	inactive
C=CCNC(=O)c1onc(CSc2ccc(Cl)cc2)c1C(=O)NCC=C	inconclusive: 18.4 µM [falling, partial curve]
Cc1nn(-c2ccccc2)c2nc(N)c(C#N)c(-c3ccc(F)cc3)c12	inconclusive: 10.3 µM [falling, partial curve, poor fit]
O=C(Nc1ccccc1)Nc1nc(-c2ccccc2)cs1	inconclusive: 9.2 µM [falling, partial curve, poor fit]
COc1ccc(CNC(=O)CCCN2C(=O)c3cccnc3Oc3ccc(Cl)cc32)cc1	inactive
CCOC(=O)C1CCN(C(=O)Cn2ncc3c4ccccc4n(C)c3c2=O)CC1	inactive
Cc1cccc(-n2ncc3c2CCCC3NC(=O)CCN2CCCCO2)c1C (stereo not given)	inconclusive: 13 µM [falling, partial curve]
CCOc1cc(CNCCO)cc(Br)c1OCc1ccc(Cl)cc1Cl	inactive
Cc1ccc(-n2cnc3ncnc(-c4ccccc4)c32)cc1	inactive
O=C(Nc1cccc([N+](=O)[O-])c1)Nc1cnccn1	inconclusive: 20.6 µM [falling, single point]
Cc1oc(-c2cccc(Cl)c2)nc1CSCC(=O)NCc1ccccc1Cl	active: 23.1 µM
N#CC(C#N)=C1c2cc(S(=O)(=O)NCCO)ccc2-c2ccc(S(=O)(=O)NCCO)cc21	inactive
